This note sets out measurements from ChEMBL document CHEMBL1649351, “Synthesis, in vitro antimicrobial and in vivo antitumor evaluation of novel pyrimidoquinolines and its nucleoside derivatives” (Eur J Med Chem, 2011).

The assay deals with Candida albicans. Kind of assay: Antifungal activity against Candida albicans at 50 mg/disk after 5 days by agar disk diffusion method. It is filed as functional. (A growth-free zone around the sample is the usual read-out of agar diffusion tests.)

On to NYSTATIN, for which the inhibition zone (IZ) is 20 mm.
